Laboratory results published in patent US11629171B2 (POLYPHOR AG, priority 2017, dated 2023).
Some peptides are written in HELM: one residue between dots, names in brackets for other building blocks, links after the first $.

Test: general procedure: Fmoc solid-phase peptide synthesis; 2-chlorotrityl resin (polystyrene crosslinked with 1-5% divinylbenzene)
Settings: whole synthesis, HPLC-MS

Going from “PEPTIDE1{[ac].Y.C.V.[Dab].E.[D-Dab].[Hse].V.S.W.C.[Serol]}|PEPTIDE2{[Dab].T.[Dab].[Dab].[Dab].[dL].L.[Dab].[Dab].T}$PEPTIDE1,PEPTIDE1,3:R3-12:R3|PEPTIDE1,PEPTIDE2,6:R3-1:R1|PEPTIDE2,PEPTIDE2,4:R3-10:R2$$$V2.0” to “PEPTIDE1{[ac].Y.C.V.[Dab].E.[D-Dab].[Hse].W.S.[tBuGly].C.[Serol]}|PEPTIDE2{[Dab].T.[Dab].[Dab].[Dab].[dL].L.[Dab].[Dab].T}$PEPTIDE1,PEPTIDE1,3:R3-12:R3|PEPTIDE1,PEPTIDE2,6:R3-1:R1|PEPTIDE2,PEPTIDE2,4:R3-10:R2$$$V2.0”, the “final HPLC purity” value rises from 88% to 95%.

First: PEPTIDE1{[ac].[Dab].V.[Dap].Y.C.E.[D-Dab].S.W.C.[tBuGly].[am]}|PEPTIDE2{[Dab].T.[Dap].[Dab].[Dab].[dL].L.[Dab].[Dab].T}$PEPTIDE1,PEPTIDE1,6:R3-11:R3|PEPTIDE1,PEPTIDE2,7:R3-1:R1|PEPTIDE2,PEPTIDE2,4:R3-10:R2$$$V2.0
Second: PEPTIDE1{[ac].[Nle].[Orn].Y.[Dap].E.[D-Dab].[Hse].W.S.[tBuGly].[dT]}|PEPTIDE2{[Dab].T.[Dap].[Dab].[Dab].[dL].L.[Dab].[Dab].T}$PEPTIDE1,PEPTIDE1,3:R3-12:R2|PEPTIDE1,PEPTIDE2,6:R3-1:R1|PEPTIDE2,PEPTIDE2,4:R3-10:R2$$$V2.0
The “final HPLC purity” value of the first is lower: 77% for the first, 82% for the second.

Compared with “PEPTIDE1{[ac].[dV].C.Y.[Dab].E.[D-Dab].[Hse].W.S.[tBuGly].C.[Throl]}|PEPTIDE2{[Dab].T.[Dab].[Dab].[Dab].[dL].L.[Dab].[Dab].T}$PEPTIDE1,PEPTIDE1,3:R3-12:R3|PEPTIDE1,PEPTIDE2,6:R3-1:R1|PEPTIDE2,PEPTIDE2,4:R3-10:R2$$$V2.0”, “PEPTIDE1{[pGlu].C.Y.[Dab].E.[D-Dab].[Hse].W.S.[tBuGly].C.[Throl]}|PEPTIDE2{[Dab].T.[Dab].[Dab].[Dab].[dL].L.[Dab].[Dab].T}$PEPTIDE1,PEPTIDE1,2:R3-11:R3|PEPTIDE1,PEPTIDE2,5:R3-1:R1|PEPTIDE2,PEPTIDE2,4:R3-10:R2$$$V2.0” is higher in “final HPLC purity” value: 92% for the first, 93% for the second.
